For at least one compound, name, drawing or mass did not settle the structure.
Test system: human CMV
Test: Intravitreal human CMV infection in pigmented rabbits, intravitreal treatment
Format: in vivo
Settings: 100 μg in 50 μl daily; by day 2 post therapy
Description: Animal models for human CMV disease were prepared by inoculating human CMV by intravitreal injection into pigmented rabbits. The animals developed in 3-4 days post inoculation a mild to moderate vitritis, focal retinal microhemorrhages, and localized retinal necrosis.
Dosages of 2'-CdG of various amounts in 100 μl of sterile water were injected into rabbit models beginning on day 3 post inoculation and repeated on day 5 and day 7N.
Development and resolution of HCMV intraocular disease in the 80 μg therapy group was similar to disease development in the 100 μg therapy group as described below.
Seven pigmented rabbits were infected with human CMV by intravitreal injection. Beginning on day 3 PI, these animals received 3 successive injections of 100 μg 2'CdG in 50 μl on day 3, 4, and 5 PI. […] Vitritis scores in these animals were 1-2+ (mild) and retinal pathology was reduced to 1-2+ level (focal hemmorhages and development of localized retinal necrosis). […] Initial virus recovery assays indicate that human CMV titers were reduced to 0 or 1 log by day 2 post therapy.

Nc1nc2c(ncn2[C@@H]2C[C@H](CO)[C@@H](O)C2)c(=O)[nH]1 [2'-CdG] was tested, and the “human CMV titers (virus recovery)” value was 0 or 1.
